Source: the supplement of paper PMC10849652
This is one part of the list.

By UniProt entry, the sequences of proteins in these tests, tags left out. Where a name states a change or a piece, a line headed by the entry shows the natural chain unless it says otherwise.
UniProt Q12894: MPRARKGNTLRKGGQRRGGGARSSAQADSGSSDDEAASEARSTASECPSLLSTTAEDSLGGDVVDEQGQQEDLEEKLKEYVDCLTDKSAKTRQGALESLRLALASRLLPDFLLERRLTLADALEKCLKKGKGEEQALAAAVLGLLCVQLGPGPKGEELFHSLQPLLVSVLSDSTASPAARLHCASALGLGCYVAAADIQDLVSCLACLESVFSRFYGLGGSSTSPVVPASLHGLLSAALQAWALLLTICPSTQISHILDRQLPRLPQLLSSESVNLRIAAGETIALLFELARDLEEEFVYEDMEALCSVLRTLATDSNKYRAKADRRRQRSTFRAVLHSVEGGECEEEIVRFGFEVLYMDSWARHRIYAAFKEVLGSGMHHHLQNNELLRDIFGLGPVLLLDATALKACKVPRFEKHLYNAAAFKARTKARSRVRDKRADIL
UniProt Q9Y4L1: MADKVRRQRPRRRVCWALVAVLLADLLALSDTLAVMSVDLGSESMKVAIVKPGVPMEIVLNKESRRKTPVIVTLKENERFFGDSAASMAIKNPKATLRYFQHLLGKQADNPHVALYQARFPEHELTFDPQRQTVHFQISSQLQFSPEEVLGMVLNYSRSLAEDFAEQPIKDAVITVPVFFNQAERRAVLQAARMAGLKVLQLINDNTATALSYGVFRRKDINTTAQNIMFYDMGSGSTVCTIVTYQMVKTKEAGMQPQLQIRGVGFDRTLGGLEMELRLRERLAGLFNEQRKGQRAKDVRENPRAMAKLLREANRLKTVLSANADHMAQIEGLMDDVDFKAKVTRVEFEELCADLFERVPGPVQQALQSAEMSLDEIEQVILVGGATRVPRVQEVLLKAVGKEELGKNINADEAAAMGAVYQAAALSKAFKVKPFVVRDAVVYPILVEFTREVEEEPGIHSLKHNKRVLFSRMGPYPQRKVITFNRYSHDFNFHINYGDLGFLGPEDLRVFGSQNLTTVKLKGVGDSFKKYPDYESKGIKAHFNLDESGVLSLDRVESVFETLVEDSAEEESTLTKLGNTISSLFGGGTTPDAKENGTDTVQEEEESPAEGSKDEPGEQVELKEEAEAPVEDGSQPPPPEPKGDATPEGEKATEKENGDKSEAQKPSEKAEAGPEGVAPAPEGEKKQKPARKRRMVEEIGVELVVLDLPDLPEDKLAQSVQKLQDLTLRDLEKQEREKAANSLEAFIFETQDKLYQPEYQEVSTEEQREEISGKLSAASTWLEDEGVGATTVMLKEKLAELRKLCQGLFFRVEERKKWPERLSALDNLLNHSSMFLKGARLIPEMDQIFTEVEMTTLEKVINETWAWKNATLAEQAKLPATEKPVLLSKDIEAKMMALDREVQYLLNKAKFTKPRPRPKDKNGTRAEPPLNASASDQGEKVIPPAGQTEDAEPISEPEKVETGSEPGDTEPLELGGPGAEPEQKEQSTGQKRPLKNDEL
UniProt O43719: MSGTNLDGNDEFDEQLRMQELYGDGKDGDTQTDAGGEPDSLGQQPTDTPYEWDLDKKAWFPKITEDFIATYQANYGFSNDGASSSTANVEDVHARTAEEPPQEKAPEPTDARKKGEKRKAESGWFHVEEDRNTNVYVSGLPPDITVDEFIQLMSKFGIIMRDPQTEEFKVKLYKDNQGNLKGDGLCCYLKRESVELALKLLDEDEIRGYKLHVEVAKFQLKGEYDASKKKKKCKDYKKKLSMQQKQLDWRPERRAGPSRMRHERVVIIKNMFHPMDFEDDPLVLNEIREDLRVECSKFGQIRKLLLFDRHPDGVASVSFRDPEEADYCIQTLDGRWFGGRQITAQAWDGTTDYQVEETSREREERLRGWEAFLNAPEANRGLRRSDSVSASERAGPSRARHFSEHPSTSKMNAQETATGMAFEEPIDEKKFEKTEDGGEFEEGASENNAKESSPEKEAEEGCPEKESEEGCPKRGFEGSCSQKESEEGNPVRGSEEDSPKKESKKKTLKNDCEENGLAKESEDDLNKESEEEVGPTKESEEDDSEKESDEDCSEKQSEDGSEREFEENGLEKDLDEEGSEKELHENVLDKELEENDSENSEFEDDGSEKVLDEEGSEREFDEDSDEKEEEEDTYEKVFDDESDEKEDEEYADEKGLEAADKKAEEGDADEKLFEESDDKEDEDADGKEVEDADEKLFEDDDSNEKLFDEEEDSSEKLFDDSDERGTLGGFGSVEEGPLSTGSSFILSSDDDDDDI
UniProt Q9NXR8, whole entry, looked up: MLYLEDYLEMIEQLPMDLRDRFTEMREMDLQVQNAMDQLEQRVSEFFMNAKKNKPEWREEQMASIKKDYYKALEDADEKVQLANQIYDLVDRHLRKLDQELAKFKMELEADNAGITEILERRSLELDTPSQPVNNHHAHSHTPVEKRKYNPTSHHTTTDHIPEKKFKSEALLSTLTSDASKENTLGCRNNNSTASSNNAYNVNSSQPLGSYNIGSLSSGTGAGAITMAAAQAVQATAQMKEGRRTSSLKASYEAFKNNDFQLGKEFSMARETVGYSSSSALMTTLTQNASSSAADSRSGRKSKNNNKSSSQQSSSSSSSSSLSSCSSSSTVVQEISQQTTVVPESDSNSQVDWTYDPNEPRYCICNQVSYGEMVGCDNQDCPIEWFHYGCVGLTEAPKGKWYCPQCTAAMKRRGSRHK
UniProt Q9Y5U9: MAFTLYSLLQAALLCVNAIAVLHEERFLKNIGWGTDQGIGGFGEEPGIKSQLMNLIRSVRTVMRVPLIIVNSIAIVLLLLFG
UniProt O14732: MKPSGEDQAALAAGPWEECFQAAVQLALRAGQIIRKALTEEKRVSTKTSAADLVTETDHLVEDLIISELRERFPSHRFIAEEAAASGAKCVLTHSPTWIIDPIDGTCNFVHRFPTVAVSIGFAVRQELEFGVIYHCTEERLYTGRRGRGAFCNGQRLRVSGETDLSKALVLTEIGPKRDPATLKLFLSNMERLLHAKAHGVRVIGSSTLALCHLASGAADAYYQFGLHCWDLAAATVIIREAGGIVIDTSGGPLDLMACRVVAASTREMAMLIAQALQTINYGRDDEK
UniProt Q9P2X3: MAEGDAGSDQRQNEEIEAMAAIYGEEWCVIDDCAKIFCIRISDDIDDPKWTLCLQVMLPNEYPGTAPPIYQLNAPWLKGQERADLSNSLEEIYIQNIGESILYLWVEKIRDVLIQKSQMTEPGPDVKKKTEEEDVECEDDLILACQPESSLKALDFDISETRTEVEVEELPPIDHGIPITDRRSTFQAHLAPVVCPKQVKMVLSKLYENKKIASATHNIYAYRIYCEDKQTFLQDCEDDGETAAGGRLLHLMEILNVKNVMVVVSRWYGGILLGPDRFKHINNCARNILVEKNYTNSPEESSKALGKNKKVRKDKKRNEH
UniProt Q13418: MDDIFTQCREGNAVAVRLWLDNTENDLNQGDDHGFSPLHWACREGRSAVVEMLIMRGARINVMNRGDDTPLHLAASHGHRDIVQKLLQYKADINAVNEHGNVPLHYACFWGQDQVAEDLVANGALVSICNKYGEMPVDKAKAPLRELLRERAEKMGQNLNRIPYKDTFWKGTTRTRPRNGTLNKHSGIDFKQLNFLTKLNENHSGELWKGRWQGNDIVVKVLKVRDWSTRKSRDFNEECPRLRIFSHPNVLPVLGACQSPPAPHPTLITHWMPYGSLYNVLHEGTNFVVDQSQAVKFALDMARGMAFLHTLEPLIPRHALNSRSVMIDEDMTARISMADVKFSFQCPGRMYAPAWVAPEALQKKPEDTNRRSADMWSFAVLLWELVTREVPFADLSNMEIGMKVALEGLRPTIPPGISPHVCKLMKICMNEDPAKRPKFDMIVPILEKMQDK
UniProt P10809, whole entry, looked up: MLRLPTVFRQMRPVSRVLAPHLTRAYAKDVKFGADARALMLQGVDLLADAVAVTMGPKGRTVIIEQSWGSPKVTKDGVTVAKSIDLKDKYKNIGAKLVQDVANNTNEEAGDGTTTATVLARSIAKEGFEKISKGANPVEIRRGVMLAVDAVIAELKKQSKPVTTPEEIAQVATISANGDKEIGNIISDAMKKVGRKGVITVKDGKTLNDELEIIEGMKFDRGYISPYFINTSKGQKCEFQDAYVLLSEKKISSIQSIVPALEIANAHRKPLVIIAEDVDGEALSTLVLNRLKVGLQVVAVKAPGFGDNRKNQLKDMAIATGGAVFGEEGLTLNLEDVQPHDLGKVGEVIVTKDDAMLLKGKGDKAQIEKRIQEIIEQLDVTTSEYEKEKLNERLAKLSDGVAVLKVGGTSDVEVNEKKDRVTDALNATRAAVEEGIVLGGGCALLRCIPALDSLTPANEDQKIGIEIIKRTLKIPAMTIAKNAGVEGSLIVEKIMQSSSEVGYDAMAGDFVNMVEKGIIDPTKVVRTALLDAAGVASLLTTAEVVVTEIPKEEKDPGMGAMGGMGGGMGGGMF
UniProt O43464: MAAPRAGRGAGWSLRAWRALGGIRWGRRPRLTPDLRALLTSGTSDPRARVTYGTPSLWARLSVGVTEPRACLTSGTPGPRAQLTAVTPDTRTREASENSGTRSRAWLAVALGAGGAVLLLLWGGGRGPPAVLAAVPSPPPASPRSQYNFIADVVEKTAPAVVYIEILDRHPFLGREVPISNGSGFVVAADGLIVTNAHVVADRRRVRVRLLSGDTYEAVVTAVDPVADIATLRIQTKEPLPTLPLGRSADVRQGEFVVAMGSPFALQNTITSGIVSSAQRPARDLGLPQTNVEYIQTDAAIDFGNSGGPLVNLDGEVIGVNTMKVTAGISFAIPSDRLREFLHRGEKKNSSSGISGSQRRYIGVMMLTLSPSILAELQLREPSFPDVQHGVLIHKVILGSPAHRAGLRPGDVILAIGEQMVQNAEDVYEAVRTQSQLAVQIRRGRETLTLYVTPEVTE
UniProt O14920: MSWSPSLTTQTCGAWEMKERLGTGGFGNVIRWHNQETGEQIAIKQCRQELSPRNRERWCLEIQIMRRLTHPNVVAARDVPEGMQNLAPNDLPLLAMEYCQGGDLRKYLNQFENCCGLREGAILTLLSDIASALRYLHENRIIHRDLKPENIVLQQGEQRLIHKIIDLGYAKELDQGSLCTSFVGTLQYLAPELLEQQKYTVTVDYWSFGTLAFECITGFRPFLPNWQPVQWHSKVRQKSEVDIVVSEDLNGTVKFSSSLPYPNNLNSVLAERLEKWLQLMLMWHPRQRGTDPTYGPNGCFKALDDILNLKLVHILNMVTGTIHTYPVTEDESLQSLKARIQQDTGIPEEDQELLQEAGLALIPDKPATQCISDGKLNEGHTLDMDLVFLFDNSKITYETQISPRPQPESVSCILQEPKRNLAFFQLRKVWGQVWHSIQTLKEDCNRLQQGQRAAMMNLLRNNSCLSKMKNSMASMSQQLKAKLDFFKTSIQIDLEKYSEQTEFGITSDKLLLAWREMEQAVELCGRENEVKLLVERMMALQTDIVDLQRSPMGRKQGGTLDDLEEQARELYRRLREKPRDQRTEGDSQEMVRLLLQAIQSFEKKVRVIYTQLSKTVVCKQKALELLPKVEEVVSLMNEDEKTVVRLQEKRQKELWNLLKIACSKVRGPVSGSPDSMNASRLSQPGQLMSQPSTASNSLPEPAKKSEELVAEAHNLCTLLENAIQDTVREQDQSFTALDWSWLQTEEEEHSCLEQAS
UniProt Q9NSE4: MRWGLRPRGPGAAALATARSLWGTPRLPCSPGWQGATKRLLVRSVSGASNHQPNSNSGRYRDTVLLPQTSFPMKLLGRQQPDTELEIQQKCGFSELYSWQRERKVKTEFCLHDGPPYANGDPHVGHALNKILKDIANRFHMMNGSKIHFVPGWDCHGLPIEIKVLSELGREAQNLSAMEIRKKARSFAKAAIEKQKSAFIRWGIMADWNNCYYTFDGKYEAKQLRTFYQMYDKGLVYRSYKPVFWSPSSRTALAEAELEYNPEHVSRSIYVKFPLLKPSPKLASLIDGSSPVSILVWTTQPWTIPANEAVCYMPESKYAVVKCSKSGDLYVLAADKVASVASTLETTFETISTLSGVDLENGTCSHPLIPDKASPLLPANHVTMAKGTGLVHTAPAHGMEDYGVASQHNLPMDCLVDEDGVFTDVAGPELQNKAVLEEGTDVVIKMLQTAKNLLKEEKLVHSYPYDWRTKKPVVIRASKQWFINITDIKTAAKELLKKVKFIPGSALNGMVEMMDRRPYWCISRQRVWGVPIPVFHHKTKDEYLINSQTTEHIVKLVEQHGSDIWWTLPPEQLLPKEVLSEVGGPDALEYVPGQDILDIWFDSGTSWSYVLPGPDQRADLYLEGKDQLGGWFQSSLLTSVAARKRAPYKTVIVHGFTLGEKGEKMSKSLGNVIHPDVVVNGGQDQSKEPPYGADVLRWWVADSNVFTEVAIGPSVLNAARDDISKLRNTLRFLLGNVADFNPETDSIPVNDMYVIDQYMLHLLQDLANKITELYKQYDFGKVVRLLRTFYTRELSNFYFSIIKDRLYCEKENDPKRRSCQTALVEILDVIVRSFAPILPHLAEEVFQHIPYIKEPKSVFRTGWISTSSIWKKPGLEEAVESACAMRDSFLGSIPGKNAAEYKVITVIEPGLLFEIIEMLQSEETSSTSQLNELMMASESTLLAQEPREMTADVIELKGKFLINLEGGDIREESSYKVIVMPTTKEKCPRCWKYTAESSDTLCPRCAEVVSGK

What was measured:
Assay in all cases: log2 fold change, soluble protein after heating vs DMSO (PISA); higher = thermal stabilisation; K562 lysate, 10 uM; active = over 0.2 and 3.5 SD of the protein, either way, in both replicates (recomputed)
erlotinib = compound: C#Cc1cccc(Nc2ncnc3cc(OCCOC)c(OCCOC)cc23)c1 [erlotinib]
Summary of the method: (§1)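 Pellets of K562 cells were dounce-homogenised in PBS pH 7.4 with 1 mM MgCl2, and the crude extract was held at 1 mg/mL protein for a 30 min treatment with 10 μM compound. Aliquots were heated for 3 min over 48°C-58°C and pooled before NP-40 was added to 0.5% at 4°C. The supernatant from 21,000xg for 90 min was quantified by TMTpro 16plex LC-MS/MS with channel sums equalised. Values are reported from duplicates as log-two fold change in thermal stability relative to solvent controls.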

[1] = compound: C/C(=N\NC(=O)C1=CC(=CC=C1)S(=O)(=O)N2CCOCC2)/C3=C(C=CC(=C3)Cl)O
Summary of the method: as §1

[2] = compound: C1=CC(=CC=C1C2=NC3=C(N2)C=C(C=C3)C(=O)N)OC4=CC=C(C=C4)Cl
Summary of the method: as §1

[3] = compound: C1=CC2=C(C=CC(=C2)/C=C\3/C(=O)NC(=NCC4=CC=CS4)S3)N=C1
Summary of the method: as §1

[4] = compound: C1=CC2=NC=CN=C2C=C1/C=C/3\C(=O)NC(=O)S3
Summary of the method: as §1

[5] = compound: C1=CC=C(C=C1)C2=NC(=C(N2)C3=CC=NC=C3)C4=CC(=C(C=C4)Cl)O
Summary of the method: as §1

[6] = compound: C1=CC=C2C(=C1)C3=NNC4=CC=CC(=C43)C2=O
Summary of the method: as §1

[7] = compound: C1CCN(C1)C(=O)NC2=CC=CC(=C2)NC3=NC=C(C(=N3)NCCC4=CN=CN4)Br
Summary of the method: as §1

[8] = compound: C1CN(CCC1(CC2=CC=C(C=C2)Cl)N)C3=NC=NC4=C3C=CN4
Summary of the method: as §1

IRAK-1-4 Inhibitor I = compound: C1COCCN1CCN2C3=CC=CC=C3N=C2NC(=O)C4=CC(=CC=C4)[N+](=O)[O-] [IRAK-1-4 Inhibitor I]
Summary of the method: as §1

Measured: log2 fold change

IDH3B (UniProt O43837)
inactive: erlotinib -0.031 | [1] -0.024 | [2] -0.026 | [3] -0.005 | [4] 0.007 | [5] -0.04 | [6] 0.18 | [7] -0.026 | [8] 0.019 | IRAK-1-4 Inhibitor I 0.027

IFRD2 isoform 2 (UniProt Q12894)
inactive: erlotinib -0.084 | [1] -0.123 | [2] -0.032 | [3] -0.068 | [4] 0.144 | [5] 0.01 | [6] 0 | [7] 0.087 | [8] -0.015 | IRAK-1-4 Inhibitor I 0.024

HYOU1 (UniProt Q9Y4L1)
inactive: erlotinib -0.002 | [1] -0.006 | [2] 0.007 | [3] -0.011 | [4] -0.018 | [5] -0.002 | [6] -0.015 | [7] 0.01 | [8] 0.009 | IRAK-1-4 Inhibitor I 0.002

HTATSF1 (UniProt O43719)
inactive: erlotinib -0.023 | [1] -0.017 | [2] 0.028 | [3] 0.014 | [4] -0.022 | [5] -0.014 | [6] -0.027 | [7] -0.015 | [8] 0.007 | IRAK-1-4 Inhibitor I -0.016

IGF2BP1 (UniProt Q9NZI8)
inactive: erlotinib 0.032 | [1] 0.031 | [2] -0.017 | [3] 0.016 | [4] 0.012 | [5] 0.037 | [6] -0.011 | [7] 0.01 | [8] 0 | IRAK-1-4 Inhibitor I -0.026

INPP4A (UniProt Q96PE3)
inactive: erlotinib 0.002 | [1] 0.007 | [2] 0.017 | [3] -0.005 | [4] -0.023 | [5] 0.099 | [6] 0.069 | [7] -0.018 | [8] -0.051 | IRAK-1-4 Inhibitor I 0.066

HTT (UniProt P42858)
inactive: erlotinib 0.018 | [1] -0.051 | [2] -0.067 | [3] 0.037 | [4] 0.032 | [5] -0.041 | [6] -0.138 | [7] -0.04 | [8] -0.05 | IRAK-1-4 Inhibitor I -0.027

ILF3 isoform 7 (UniProt Q12906)
inactive: erlotinib -0.011 | [1] 0.031 | [2] 0.02 | [3] -0.013 | [4] -0.013 | [5] 0.027 | [6] 0.008 | [7] 0.001 | [8] -0.017 | IRAK-1-4 Inhibitor I 0.019

ICE2 (UniProt Q659A1)
inactive: erlotinib 0.045 | [1] 0.029 | [2] 0.052 | [3] -0.037 | [4] -0.084 | [5] 0.067 | [6] 0.03 | [7] 0.007 | [8] 0.038 | IRAK-1-4 Inhibitor I 0.036

INTS13 (UniProt Q9NVM9)
inactive: erlotinib -0.001 | [1] 0.064 | [2] -0.026 | [3] 0.01 | [4] -0.035 | [5] 0.015 | [6] -0.014 | [7] 0.017 | [8] -0.004 | IRAK-1-4 Inhibitor I -0.015

ICAM4 isoform 3 (UniProt Q14773)
inactive: erlotinib -0.03 | [1] -0.158 | [2] 0.162 | [3] -0.027 | [4] -0.001 | [5] 0.088 | [6] 0.055 | [7] -0.063 | [8] 0.257 | IRAK-1-4 Inhibitor I 0.195

INPP5F (UniProt Q9Y2H2)
inactive: erlotinib 0.045 | [1] 0.014 | [2] 0.196 | [3] 0.002 | [4] -0.198 | [5] 0.167 | [6] -0.166 | [7] -0.101 | [8] 0.297 | IRAK-1-4 Inhibitor I 0.169

ING3 (UniProt Q9NXR8)
inactive: erlotinib -0.038 | [1] -0.038 | [2] 0.066 | [3] 0.037 | [4] 0.051 | [5] -0.126 | [6] 0.087 | [7] -0.028 | [8] 0.015 | IRAK-1-4 Inhibitor I -0.005

IER3IP1 (UniProt Q9Y5U9)
inactive: erlotinib 0.035 | [1] -0.149 | [2] 0.077 | [3] 0.047 | [4] 0.075 | [5] -0.181 | [6] -0.112 | [7] 0.198 | [8] 0.042 | IRAK-1-4 Inhibitor I -0.037

IMPA2 (UniProt O14732)
inactive: erlotinib -0.052 | [1] 0.017 | [2] -0.062 | [3] -0.051 | [4] 0.022 | [5] 0.033 | [6] -0.05 | [7] 0.005 | [8] -0.036 | IRAK-1-4 Inhibitor I 0.024

2 successive records already listed:
ICAM4 isoform 3 (UniProt Q14773)
inactive: erlotinib -0.03 | [1] -0.158 | [2] 0.162 | [3] -0.027 | [4] -0.001 | [5] 0.088 | [6] 0.055 | [7] -0.063 | [8] 0.257 | IRAK-1-4 Inhibitor I 0.195

INPP5F (UniProt Q9Y2H2)
inactive: erlotinib 0.045 | [1] 0.014 | [2] 0.196 | [3] 0.002 | [4] -0.198 | [5] 0.167 | [6] -0.166 | [7] -0.101 | [8] 0.297 | IRAK-1-4 Inhibitor I 0.169

Later entries

IMPACT (UniProt Q9P2X3)
inactive: erlotinib -0.03 | [1] 0.13 | [2] 0.014 | [3] 0.083 | [4] 0.043 | [5] 0.056 | [6] 0.001 | [7] 0.06 | [8] -0.082 | IRAK-1-4 Inhibitor I -0.076

IMPDH2 (UniProt P12268)
inactive: erlotinib 0.001 | [1] -0.009 | [2] -0.018 | [3] -0.018 | [4] -0.013 | [5] -0.028 | [6] -0.003 | [7] 0.019 | [8] -0.003 | IRAK-1-4 Inhibitor I 0.011

IL18R1 (UniProt Q13478)
inactive: erlotinib -0.029 | [1] -0.493 | [2] -0.136 | [3] 0.147 | [4] 0.041 | [5] 0.152 | [6] 0.079 | [7] -0.155 | [8] 0.058 | IRAK-1-4 Inhibitor I -0.043

ILK (UniProt Q13418)
inactive: erlotinib 0.112 | [1] 0.025 | [2] 0.019 | [3] 0.012 | [4] 0.002 | [5] -0.018 | [6] -0.04 | [7] 0.029 | [8] -0.035 | IRAK-1-4 Inhibitor I 0.045

IFNGR1 (UniProt P15260)
inactive: erlotinib 0.06 | [1] -0.064 | [2] 0.07 | [3] -0.134 | [4] -0.127 | [5] -0.021 | [6] -0.264 | [7] -0.075 | [8] 0.073 | IRAK-1-4 Inhibitor I 0.107

HSPD1 (UniProt P10809)
inactive: erlotinib 0 | [1] 0.047 | [2] 0.009 | [3] -0.022 | [4] 0.003 | [5] 0.007 | [6] 0.01 | [7] -0.006 | [8] 0 | IRAK-1-4 Inhibitor I 0.006

IFRD1 (UniProt O00458)
inactive: erlotinib -0.047 | [1] 0.076 | [2] -0.075 | [3] 0.046 | [4] -0.016 | [5] -0.015 | [6] 0.064 | [7] 0.024 | [8] -0.048 | IRAK-1-4 Inhibitor I -0.015

INTS1 (UniProt Q8N201)
inactive: erlotinib 0.016 | [1] 0.063 | [2] 0.013 | [3] -0.071 | [4] -0.017 | [5] 0.027 | [6] -0.097 | [7] -0.01 | [8] 0.025 | IRAK-1-4 Inhibitor I 0.016

HTRA2 (UniProt O43464)
inactive: erlotinib -0.006 | [1] 0.111 | [2] 0.028 | [3] -0.02 | [4] 0.011 | [5] -0.017 | [6] -0.037 | [7] -0.004 | [8] 0.012 | IRAK-1-4 Inhibitor I 0.016

IL18 (UniProt Q14116)
inactive: erlotinib -0.019 | [1] -0.069 | [2] 0.01 | [3] -0.065 | [4] -0.062 | [5] -0.028 | [6] -0.02 | [7] 0.051 | [8] 0.007 | IRAK-1-4 Inhibitor I -0.012

ICA1 (UniProt Q05084)
inactive: erlotinib -0.012 | [1] -0.012 | [2] -0.014 | [3] -0.035 | [4] -0.043 | [5] 0.003 | [6] -0.013 | [7] -0.014 | [8] 0.033 | IRAK-1-4 Inhibitor I 0.003

IKBKB (UniProt O14920)
inactive: erlotinib 0.03 | [1] 0.016 | [2] 0.005 | [3] 0.014 | [4] -0.04 | [5] -0.043 | [6] -0.023 | [7] -0.045 | [8] -0.029 | IRAK-1-4 Inhibitor I 0.002

IFITM3 (UniProt Q01628)
inactive: erlotinib -0.136 | [1] -0.11 | [2] 0.062 | [3] 0.004 | [4] -0.094 | [5] -0.122 | [6] 0.084 | [7] -0.095 | [8] -0.069 | IRAK-1-4 Inhibitor I -0.026

IARS2 (UniProt Q9NSE4)
inactive: erlotinib -0.025 | [1] 0.014 | [2] 0.026 | [3] 0.005 | [4] 0.013 | [5] -0.007 | [6] -0.043 | [7] -0.01 | [8] 0.054 | IRAK-1-4 Inhibitor I 0.016
